Laboratory results: PubChem BioAssay AID743454 (Peter MacCallum Cancer Centre, 2014)
Assay: 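Knock-downs lowering viability or raising caspase 3/7 activity in vorinostat-treated resistant cells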 (primary screen). System: human HCT116-VR colon cancer cells, selected for vorinostat resistance. Reagent: siRNA pool against human genes, 40 nM siRNA pool. Time to read-out: vorinostat for 24 h, read-out about 72 h after transfection. Challenge: vorinostat at 2.5 µM final. Detection: 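Two measures, CellTiter-Fluor viability and luminescent caspase 3/7 activity, each as fold change against same-plate mock wells, mean of duplicates, then screen-wide robust z-score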. Direction: viability robust z-score: higher = more viable cells than screen typical; caspase robust z-score: higher = more caspase 3/7 activity than screen typical. Active means: 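a knock-down is a hit when classed RV1 or RV2 for lowered viability, or CA1 or CA2 for caspase activation; those lethal without drug were dropped; hits were retested singly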.
Here is an unselected part of about 18,000 reagents tested. 450 of them (2.5%) were called active. 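Single biological run; no consistent viability z cut-off exists, so the class columns, not z-scores, define the calls.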 No sequences are given here.

What did the screen give for NAA15 (N-alpha-acetyltransferase 15, NatA auxiliary subunit)?
viability hit class: no change; caspase hit class: no change; viability robust z-score: 0.26; caspase robust z-score: 0.28; activity call: inactive

With TP53BP1 (tumor protein p53 binding protein 1), what does the deposit list?
viability hit class: no change; caspase hit class: no change; viability robust z-score: 1.42; caspase robust z-score: -0.4; activity call: inactive

For UBE2N (ubiquitin conjugating enzyme E2 N), what was measured?
viability hit class: no change; caspase hit class: no change; viability robust z-score: -1.75; caspase robust z-score: 2.67; activity call: inactive

For FAM209A (family with sequence similarity 209 member A), what does the deposit list?
viability hit class: no change; caspase hit class: no change; viability robust z-score: 0.53; caspase robust z-score: 4.73; activity call: inactive

With ZNF600 (zinc finger protein 600), what was measured?
viability hit class: no change; caspase hit class: no change; viability robust z-score: -0.12; caspase robust z-score: 1.26; activity call: inactive

With KLK9 (kallikrein related peptidase 9), how do the results read?
viability hit class: no change; caspase hit class: no change; viability robust z-score: -0.28; caspase robust z-score: -0.86; activity call: inactive

For PRMT2IP (PRMT2 interacting protein), what was measured?
viability hit class: no change; caspase hit class: no change; viability robust z-score: 0.11; caspase robust z-score: 1.52; activity call: inactive

With CHTF18 (chromosome transmission fidelity factor 18), how do the results read?
viability hit class: no change; caspase hit class: no change; viability robust z-score: 1.18; caspase robust z-score: -0.7; activity call: inactive

Ordered by “caspase robust z-score” (low to high): some entries from above.
KLK9 (kallikrein related peptidase 9) → viability hit class: no change; caspase hit class: no change; viability robust z-score: -0.28; caspase robust z-score: -0.86; activity call: inactive
CHTF18 (chromosome transmission fidelity factor 18) → viability hit class: no change; caspase hit class: no change; viability robust z-score: 1.18; caspase robust z-score: -0.7; activity call: inactive
PRMT2IP (PRMT2 interacting protein) → viability hit class: no change; caspase hit class: no change; viability robust z-score: 0.11; caspase robust z-score: 1.52; activity call: inactive

The listing continues.
How did the screen score H1-3 (H1.3 linker histone, cluster member)?
viability hit class: no change; caspase hit class: no change; viability robust z-score: -0.38; caspase robust z-score: -0.75; activity call: inactive

For SLC35H1, how do the results read?
viability hit class: no change; caspase hit class: no change; viability robust z-score: -0.04; caspase robust z-score: -0.66; activity call: inactive

What did the screen give for RUNX3 (RUNX family transcription factor 3)?
viability hit class: no change; caspase hit class: no change; viability robust z-score: 0.38; caspase robust z-score: -0.76; activity call: inactive

With CPA1 (carboxypeptidase A1), how do the results read?
viability hit class: no change; caspase hit class: no change; viability robust z-score: -0.11; caspase robust z-score: -0.92; activity call: inactive

What did the screen give for TMEM79 (transmembrane protein 79)?
viability hit class: no change; caspase hit class: no change; viability robust z-score: 0.44; caspase robust z-score: 0.34; activity call: inactive

How did the screen score GNG10 (G protein subunit gamma 10)?
viability hit class: no change; caspase hit class: no change; viability robust z-score: 0.15; caspase robust z-score: -0.57; activity call: inactive

How did the screen score ATP6V1B1 (ATPase H+ transporting V1 subunit B1)?
viability hit class: no change; caspase hit class: no change; viability robust z-score: -2.32; caspase robust z-score: 4.74; activity call: inactive

How did the screen score MTFMT (mitochondrial methionyl-tRNA formyltransferase)?
viability hit class: no change; caspase hit class: no change; viability robust z-score: -1.32; caspase robust z-score: 4.42; activity call: inactive

With LOXL2 (lysyl oxidase like 2), what was measured?
viability hit class: no change; caspase hit class: no change; viability robust z-score: -1.73; caspase robust z-score: 1.9; activity call: inactive

What is on record for FRRS1 (ferric chelate reductase 1)?
viability hit class: no change; caspase hit class: no change; viability robust z-score: 0.08; caspase robust z-score: 0.3; activity call: inactive

What did the screen give for KCNA10 (potassium voltage-gated channel subfamily A member 10)?
viability hit class: no change; caspase hit class: no change; viability robust z-score: -0.15; caspase robust z-score: -0.26; activity call: inactive

Which result is listed for CNTFR (ciliary neurotrophic factor receptor)?
viability hit class: no change; caspase hit class: no change; viability robust z-score: 0.14; caspase robust z-score: 1.8; activity call: inactive

What did the screen give for XKR7 (XK related 7)?
viability hit class: no change; caspase hit class: no change; viability robust z-score: 0.69; caspase robust z-score: 0.69; activity call: inactive
